Data from paper PMC6909106.
No constants are given. Whether binding was seen depends on the method and setting. Binding seen in cells or lysates may run through a third protein. Some binding calls cover weakened binding; strength is not graded here. For some assays here: Where a sequence is shown, tags or fusion partners need not be part of it.

Sequences of proteins named here, by UniProt entry; tags and fusion partners are left off.
UniProt Q13131: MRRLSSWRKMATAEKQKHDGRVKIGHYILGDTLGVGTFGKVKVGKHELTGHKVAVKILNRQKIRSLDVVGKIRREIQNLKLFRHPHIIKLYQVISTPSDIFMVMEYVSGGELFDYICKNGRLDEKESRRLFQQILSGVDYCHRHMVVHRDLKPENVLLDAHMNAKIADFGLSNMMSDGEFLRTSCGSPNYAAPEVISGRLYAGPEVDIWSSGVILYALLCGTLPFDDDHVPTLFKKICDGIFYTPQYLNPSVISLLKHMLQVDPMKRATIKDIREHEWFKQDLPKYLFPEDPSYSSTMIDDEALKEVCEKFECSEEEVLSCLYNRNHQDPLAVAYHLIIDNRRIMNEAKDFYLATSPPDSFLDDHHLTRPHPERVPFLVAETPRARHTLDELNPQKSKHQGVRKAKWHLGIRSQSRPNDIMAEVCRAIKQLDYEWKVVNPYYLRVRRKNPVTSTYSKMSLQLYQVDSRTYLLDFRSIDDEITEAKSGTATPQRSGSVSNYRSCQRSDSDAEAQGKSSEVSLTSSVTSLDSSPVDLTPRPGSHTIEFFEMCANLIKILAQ
UniProt Q9Y297: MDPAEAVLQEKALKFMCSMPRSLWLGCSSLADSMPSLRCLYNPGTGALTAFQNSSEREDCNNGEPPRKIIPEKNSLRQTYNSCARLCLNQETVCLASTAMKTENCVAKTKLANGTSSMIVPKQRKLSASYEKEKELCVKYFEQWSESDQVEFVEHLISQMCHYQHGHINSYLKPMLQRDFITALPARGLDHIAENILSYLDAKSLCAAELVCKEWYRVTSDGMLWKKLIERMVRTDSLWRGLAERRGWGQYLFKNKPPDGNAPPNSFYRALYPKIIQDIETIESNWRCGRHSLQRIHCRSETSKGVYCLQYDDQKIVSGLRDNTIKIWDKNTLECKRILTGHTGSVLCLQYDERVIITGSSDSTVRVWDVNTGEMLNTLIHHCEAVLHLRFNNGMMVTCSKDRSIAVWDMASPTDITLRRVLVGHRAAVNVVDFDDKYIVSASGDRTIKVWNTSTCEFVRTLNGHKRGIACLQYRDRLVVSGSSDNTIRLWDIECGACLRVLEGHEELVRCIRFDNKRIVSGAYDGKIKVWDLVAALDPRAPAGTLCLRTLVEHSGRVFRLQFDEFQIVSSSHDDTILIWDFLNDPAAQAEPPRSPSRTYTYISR

T1: EGFP-WT-Nrf2 (nuclear factor (erythroid-derived 2)-like 2, EGFP-tagged wild type) (human) (UniProt Q16236)
T1 sequence: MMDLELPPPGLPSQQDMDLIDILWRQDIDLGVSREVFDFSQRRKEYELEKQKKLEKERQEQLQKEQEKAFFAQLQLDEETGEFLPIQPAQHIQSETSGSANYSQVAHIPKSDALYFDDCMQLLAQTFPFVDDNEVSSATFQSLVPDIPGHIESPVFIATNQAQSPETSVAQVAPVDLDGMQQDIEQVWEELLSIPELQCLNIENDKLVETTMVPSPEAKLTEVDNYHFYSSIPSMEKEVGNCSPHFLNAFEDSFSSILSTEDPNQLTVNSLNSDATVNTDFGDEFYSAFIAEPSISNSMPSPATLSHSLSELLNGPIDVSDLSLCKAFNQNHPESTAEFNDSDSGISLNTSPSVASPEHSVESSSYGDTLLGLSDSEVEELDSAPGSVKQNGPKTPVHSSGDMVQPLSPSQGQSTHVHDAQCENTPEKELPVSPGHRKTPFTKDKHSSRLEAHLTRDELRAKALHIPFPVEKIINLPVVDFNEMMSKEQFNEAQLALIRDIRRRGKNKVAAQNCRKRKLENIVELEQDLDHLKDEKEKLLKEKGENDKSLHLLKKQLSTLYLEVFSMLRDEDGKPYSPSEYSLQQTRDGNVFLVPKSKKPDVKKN


Key:
[1] = target: T1, EGFP-WT-Nrf2 (nuclear factor (erythroid-derived 2)-like 2, EGFP-tagged wild type) (human); test: co-IP; GFP-Trap pulldown of EGFP-WT-Nrf2, EGFP-TM-Nrf2 or EGFP from lysates of HEK cells co-transfected with myc-β-TrCP; cells treated with DMSO or A769662 (50 μM) 1 h before MG132 (20 μM, 3 h); immunoblots for myc and GFP, densitometry of myc/GFP signal
[2] = target: AMPK (bait of the reverse co-immunoprecipitation, Supplemental Fig. 1C) (UniProt Q13131); test: co-IP; reverse co-immunoprecipitation: specific pulldown of AMPK from cell lysates, detection of Nrf2 (Supplemental Fig. 1C)

| binding [1] | binding [2] | Molecule |
| --- | --- | --- |
| binds |  | myc-tagged β-TrCP (β-transducin repeat containing protein 1) (from UniProt Q9Y297 1-605) |
|  | binds | Nrf2 (prey of the reverse co-immunoprecipitation, Supplemental Fig. 1C) (protein, UniProt Q16236 1-605) MMDLELPPPGLPSQQDMDLIDILWRQDIDLGVSREVFDFSQRRKEYELEKQKKLEKERQEQLQKEQEKAFFAQLQLDEETGEFLPIQPAQHIQSETSGSANYSQVAHIPKSDALYFDDCMQLLAQTFPFVDDNEVSSATFQSLVPDIPGHIESPVFIATNQAQSPETSVAQVAPVDLDGMQQDIEQVWEELLSIPELQCLNIENDKLVETTMVPSPEAKLTEVDNYHFYSSIPSMEKEVGNCSPHFLNAFEDSFSSILSTEDPNQLTVNSLNSDATVNTDFGDEFYSAFIAEPSISNSMPSPATLSHSLSELLNGPIDVSDLSLCKAFNQNHPESTAEFNDSDSGISLNTSPSVASPEHSVESSSYGDTLLGLSDSEVEELDSAPGSVKQNGPKTPVHSSGDMVQPLSPSQGQSTHVHDAQCENTPEKELPVSPGHRKTPFTKDKHSSRLEAHLTRDELRAKALHIPFPVEKIINLPVVDFNEMMSKEQFNEAQLALIRDIRRRGKNKVAAQNCRKRKLENIVELEQDLDHLKDEKEKLLKEKGENDKSLHLLKKQLSTLYLEVFSMLRDEDGKPYSPSEYSLQQTRDGNVFLVPKSKKPDVKKN |
